In the supplement of paper PMC8426693:
This is one part of the list.

How the values were obtained:
Experiment in all cases: NMR binding call after quantification (hit when 2 of 3 NMR criteria are met) (binary (1 = binding, 0 = not binding)); higher = binding
Conditions in all cases: RNA concentration 10 µM; fragment concentration 200 µM; 293 K
SARS-CoV-2 5'-UTR RNA = tested on: SARS-CoV-2 5'-UTR RNA
SARS-CoV-2 5_SL1 RNA = tested on: SARS-CoV-2 5_SL1 RNA
SARS-CoV-2 5_SL1234 RNA = tested on: SARS-CoV-2 5_SL1234 RNA
SARS-CoV-2 5_SL2+3 RNA = tested on: SARS-CoV-2 5_SL2+3 RNA
SARS-CoV-2 5_SL4 RNA = tested on: SARS-CoV-2 5_SL4 RNA
SARS-CoV-2 5_SL5 RNA = tested on: SARS-CoV-2 5_SL5 RNA
SARS-CoV-2 5_SL5a RNA = tested on: SARS-CoV-2 5_SL5a RNA
SARS-CoV-2 5_SL5b+c RNA = tested on: SARS-CoV-2 5_SL5b+c RNA
SARS-CoV-2 5_SL5stem RNA = tested on: SARS-CoV-2 5_SL5stem RNA
SARS-CoV-2 5_SL6 RNA = tested on: SARS-CoV-2 5_SL6 RNA

SMILES	NMR binding call (SARS-CoV-2 5'-UTR RNA)	NMR binding call (SARS-CoV-2 5_SL1 RNA)	NMR binding call (SARS-CoV-2 5_SL1234 RNA)	NMR binding call (SARS-CoV-2 5_SL2+3 RNA)	NMR binding call (SARS-CoV-2 5_SL4 RNA)	NMR binding call (SARS-CoV-2 5_SL5 RNA)	NMR binding call (SARS-CoV-2 5_SL5a RNA)	NMR binding call (SARS-CoV-2 5_SL5b+c RNA)	NMR binding call (SARS-CoV-2 5_SL5stem RNA)	NMR binding call (SARS-CoV-2 5_SL6 RNA)
COc1cc(CN)cc(OC)c1OC.Cl	0	0	0	0	0	0	0	0	0	0
Cc1noc(CN2CCC(CO)CC2)n1	0	0	0	0	0	0	0	0	0	0
CN1CCCC(OC(=O)c2ccco2)C1 (stereo not given)	0	0	0	0	0	0	0	0	0	0
CC(=O)Nc1ccc(-c2csc(N)n2)cc1	1	0	0	0	0	1	0	0	0	0
CNC1CCN(c2ccccc2F)C1=O.Cl (stereo not given)	0	0	0	0	0	0	0	0	0	0
O=C(CC1CCCCC1)Nn1cnnc1	0	0	0	0	0	0	0	0	0	0
CC(=O)N1Cc2ccc(N)cc2C1	0	0	0	0	0	0	0	0	0	0
Cn1nnc(NC(=O)c2ccc(F)cc2)n1	0	0	0	0	0	0	0	0	0	0
CS(=O)(=O)NC1CCCC1	0	0	0	0	0	0	0	0	0	0
O=C(NCc1ccco1)NC1CCCCC1	0	0	0	0	0	0	0	0	0	0
CCNc1ncccc1C	0	0	0	0	0	0	0	0	0	0
CC(=O)NCCN1CCCCCC1	0	0	0	0	0	0	0	0	0	0
CCc1ccc(OCC(=O)N2CCCCC2)cc1	0	0	0	0	0	0	0	0	0	0
CN(C1CCCCCC1)S(C)(=O)=O	0	0	0	0	0	0	0	0	0	0
Cc1ncc(CNc2cncc(F)c2)s1	0	0	0	0	0	0	0	0	0	0
CN(C)CCN1C(=O)c2ccccc2C1=O	0	0	0	0	0	0	0	0	0	0
c1ccc(CCNc2nc3ccccc3[nH]2)cc1	1	0	0	0	0	0	0	0	0	0
Cc1nccn1Cc1cccc(C#N)c1	0	0	0	0	0	0	0	0	0	0
CCNc1ccc(C#N)cn1	0	0	0	0	0	0	0	0	0	0
CN(CCc1ccccn1)C(=O)c1ccccc1	0	0	0	0	0	0	0	0	0	0
Cc1ccc(CNC(=O)Cc2cccs2)cc1	0	0	0	0	0	0	0	0	0	0
Cl.Cn1cc(C(N)=O)c(C2CCCNC2)n1 (stereo not given)	0	0	0	0	0	0	0	0	0	0
CC(O)COc1cccc(F)c1 (stereo not given)	0	0	0	0	0	0	0	0	0	0
Cc1nc(C)n(CCC(=O)O)n1	0	0	0	0	0	0	0	0	0	0
CCN(C)C(=O)c1cccc(N)c1	0	0	0	0	0	0	0	0	0	0
CC1CCC(NC2CCC(O)CC2)CC1 (stereo not given)	0	0	0	0	0	0	0	0	0	0

Arranged by number of heavy atoms (low to high): part of the list above.
SMILES	NMR binding call (SARS-CoV-2 5'-UTR RNA)	NMR binding call (SARS-CoV-2 5_SL1 RNA)	NMR binding call (SARS-CoV-2 5_SL1234 RNA)	NMR binding call (SARS-CoV-2 5_SL2+3 RNA)	NMR binding call (SARS-CoV-2 5_SL4 RNA)	NMR binding call (SARS-CoV-2 5_SL5 RNA)	NMR binding call (SARS-CoV-2 5_SL5a RNA)	NMR binding call (SARS-CoV-2 5_SL5b+c RNA)	NMR binding call (SARS-CoV-2 5_SL5stem RNA)	NMR binding call (SARS-CoV-2 5_SL6 RNA)
Cc1ncc(CNc2cncc(F)c2)s1	0	0	0	0	0	0	0	0	0	0
Cn1nnc(NC(=O)c2ccc(F)cc2)n1	0	0	0	0	0	0	0	0	0	0
CCc1ccc(OCC(=O)N2CCCCC2)cc1	0	0	0	0	0	0	0	0	0	0

Additional entries

SMILES	NMR binding call (SARS-CoV-2 5'-UTR RNA)	NMR binding call (SARS-CoV-2 5_SL1 RNA)	NMR binding call (SARS-CoV-2 5_SL1234 RNA)	NMR binding call (SARS-CoV-2 5_SL2+3 RNA)	NMR binding call (SARS-CoV-2 5_SL4 RNA)	NMR binding call (SARS-CoV-2 5_SL5 RNA)	NMR binding call (SARS-CoV-2 5_SL5a RNA)	NMR binding call (SARS-CoV-2 5_SL5b+c RNA)	NMR binding call (SARS-CoV-2 5_SL5stem RNA)	NMR binding call (SARS-CoV-2 5_SL6 RNA)
OCc1ccccc1N1CCOCC1	0	0	0	0	0	0	0	0	0	0
Oc1ncc(NC2CCCCC2)c(O)n1	0	0	0	0	0	0	0	0	0	0
CCN(CC)S(=O)(=O)c1ccc(C)cc1	0	0	0	0	0	0	0	0	0	0
CC(C)c1ccc(C(=O)Nc2ccccn2)cc1	0	0	0	0	0	0	0	0	0	0
Cc1cccc(C(=O)NC(C)C2CC2)n1 (stereo not given)	0	0	0	0	0	0	0	0	0	0
NC(=O)C1CCN(C(=O)C2CCCCC2)CC1	0	0	0	0	0	0	0	0	0	0
CCOc1ccccc1N1CCNCC1.Cl	0	0	0	0	0	0	0	0	0	0
CC1CCN(CCN)CC1	0	0	0	0	0	0	0	0	0	0
CCn1nccc1CNC.Cl.Cl	0	0	0	0	0	0	0	0	0	0
Oc1ncc(NCc2ccccc2)c(O)n1	0	0	0	0	0	0	0	0	0	0
O=C(CN1CCCC1)Nc1ccc(F)cc1	0	0	0	0	0	0	0	0	0	0
O=C(OCc1ccc(Cl)cc1)c1cccnc1	1	0	0	0	0	0	0	0	0	0
NC(=O)c1cnn(CCO)c1	0	0	0	0	0	0	0	0	0	0
CC(NC(=O)C1CCCC1)C(=O)O (stereo not given)	0	0	0	0	0	0	0	0	0	0
O=C(O)c1ccc(OCc2ccccc2)cc1	0	0	0	0	0	0	0	0	0	0
COCC(=O)Nc1nnc(C)s1	0	0	0	0	0	0	0	0	0	0
O=C(Nc1ccccn1)c1cnccn1	1	0	0	0	0	1	0	0	0	0
Fc1cccc(CN2CCOCC2)c1	0	0	0	0	0	0	0	0	0	0
CCN(CC)C(=O)c1cc(C)no1	0	0	0	0	0	0	0	0	0	0
CCNC(=O)CN1CC(C)OCC1C (stereo not given)	0	0	0	0	0	0	0	0	0	0
CC1COCCN1Cc1ccccc1F (stereo not given)	0	0	0	0	0	0	0	0	0	0
CCOC(=O)N1CCOCC1	0	0	0	0	0	0	0	0	0	0
Cc1ccccc1-n1cc(C(=O)O)nn1	0	0	0	0	0	0	0	0	0	0
Cc1nccn1CC(C)O (stereo not given)	0	0	0	0	0	0	0	0	0	0
Cc1cc(C(=O)NC(C)C)nn1C	0	0	0	0	0	0	0	0	0	0
CNS(=O)(=O)CC1CCCCC1	0	0	0	0	0	0	0	0	0	0
